Data taken from PubChem BioAssay AID2685 (National Center for Advancing Translational Sciences (NCATS), 2010).
This is one part of the list. Further columns of the screen follow, without active or inactive calls. The list favours compounds with an active or inconclusive main result. Potencies come from curve fits of mixed quality, noted in brackets.

Assay: qHTS Assay for Lipid Storage Modulators in Drosophila S3 Cells;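 for cell number change: cells counted by Cell Tracker Red CMTPX staining in the red channel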
Details: BODIPY lipid droplet fluorescence, 18-24 h; for cell number change: measured here: cell count max response, cells fed with added oleic acid
How it was run: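 Drosophila S3 cells got compounds at several concentrations plus oleic acid (400 uM solution). Laser-scanning cytometry with 488 nm excitation read lipid droplets at 500-530 nm and cells at 575-640 nm. Percent activity was relative to 20 uM Triacsin C.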

[1] = measured here: lipid fluorescence (Fed channel) AC50, cells fed with added oleic acid
[2] = measured here: cell number channel AC50, cells fed with added oleic acid

| SMILES | cell number change | AC50 [1] | AC50 [2] |
| --- | --- | --- | --- |
| CCO/N=C1\C(=O)N(c2ccccc2)c2ccccc21 | -9.26% |  |  |
| Nc1cc2c3c(cccc3c1)C(=O)N(CCN1CCCC1)C2=O | -24.4% | 23.1 µM [falling, partial curve] |  |
| CCN(CC)S(=O)(=O)c1ccc(NC(=O)c2cc(=O)[nH]c3ccccc23)cc1 | -16.9% | 2.91 µM [rising, single point] | 0.00461 µM [rising, full curve, poor fit] |
| COCCn1c(=O)[nH]c2cc(C(=O)N3CCN(c4ccccc4F)CC3)ccc2c1=O |  | 10.3 µM [falling, partial curve] |  |
| CCOC(=O)C1=C(COC(=O)/C=C/c2ccc(OC)cc2)NC(=O)NC1C (configuration not stated) | -19.9% | 4.61 µM [rising, partial curve] |  |
| O=C(NNc1ccc(C(F)(F)F)cc1[N+](=O)[O-])c1ccc(NS(=O)(=O)c2ccc(F)cc2)cc1 | -12.5% |  |  |
| CCOC(=O)/C(=N\Nc1cc(Cl)ccc1Cl)N1CC(C)OC(C)C1 (configuration not stated) | 13.2% | 13 µM [rising, partial curve] |  |
| O=C(CSc1nc2c([nH]c3ccccc32)c(=O)n1-c1cccc(Cl)c1)N1CCOCC1 | -42.4% | 16.4 µM [falling, single point] | 13 µM [falling, partial curve] |
| Cc1cc(S(=O)(=O)N2CCN(c3ccccc3F)CC2)ccc1-n1cnnn1 | 20.5% |  |  |
| COc1ccc(OC)c(C(=O)c2coc3ccc(O)cc23)c1 | -1.01% | 0.259 µM [rising, full curve, poor fit] |  |
| O=C(COc1ccccc1/C=C1\SC(=O)NC1=O)Nc1ccccc1 | -13.6% | 0.517 µM [falling, full curve] | 0.58 µM [falling, full curve] |
| Cc1onc(-c2ccccc2Cl)c1C(=O)NNC(=O)C1CCN(Cc2ccccc2)CC1 | -36.1% | 0.92 µM [falling, partial curve] | 0.731 µM [falling, partial curve] |
| Cc1ccc(O)c(C(=O)c2cnc3c(c2)c(C)nn3-c2ccccc2)c1 |  | 29.1 µM [rising, single point] |  |
| CC(C)(C)NC(=O)C(=O)NNC(=O)c1cccc(F)c1 | 1.72% |  | 1.3 µM [rising, full curve, poor fit] |
| Cc1cc(C)cc(N(CC(=O)N2CCN(Cc3ccccc3)CC2)S(=O)(=O)c2c(C)noc2C)c1 | 12% | 0.00461 µM [falling, full curve, poor fit] | 0.731 µM [falling, partial curve] |
| CC(C)(C)Sc1ccc(/C=N/O)cc1[N+](=O)[O-] | -45% |  | 14.6 µM [falling, single point] |
| CCC(NC(=O)c1ccccc1NC(=O)c1ccccc1)C(=O)O (configuration not stated) | -78.4% | 20.6 µM [falling, single point] | 18.4 µM [falling, single point] |
| CCCOc1ccc2ccccc2c1/C=C1\SC(=O)NC1=O | -0.365% |  |  |
| Cc1cccc(NC(=O)c2sc3nc4c(c(-c5cccs5)c3c2N)CN(C)CC4)c1 | 171% | 18.4 µM [rising, partial curve] | 29.1 µM [rising, single point] |
| c1ccc2cc3c(NCCN4CCOCC4)ccnc3cc2c1 | -38.9% | 29.1 µM [falling, single point] | 29.1 µM [falling, partial curve, poor fit] |

| SMILES | cell number change | AC50 [1] | AC50 [2] |
| --- | --- | --- | --- |
| CSc1cc(C)[nH]c(=O)n1 | -63.3% | 29.1 µM [falling, single point] | 29.1 µM [falling, single point] |
| COc1ccccc1CN1CC(C(=O)NCc2nc3ccccc3n2C)CCC1=O (configuration not stated) | -4.34% | 0.411 µM [rising, full curve, poor fit] |  |
| CCc1ccc(OCC(=O)Nc2cc(S(=O)(=O)CC)ccc2O)cc1 | -6.56% | 0.116 µM [falling, full curve, poor fit] |  |
| Cc1ccc(-n2c(C)cc3c2CCCC3=O)cc1 |  | 5.8 µM [falling, single point] | 6.51 µM [falling, single point] |
| CCCS(=O)(=O)N1CCCC(C(=O)N2CCC(Cc3ccccc3)CC2)C1 (configuration not stated) |  |  | 2.91 µM [falling, partial curve] |
| CCCNC(=O)NCCc1ccncc1 | 10.4% | 16.4 µM [rising, single point] |  |
| CCOC(=O)c1c(/N=C/N(C)C)sc(C=O)c1-c1ccccc1 | 31.8% | 18.4 µM [rising, single point] | 18.4 µM [rising, single point] |
| COc1ccc(CC(NC(C)=O)C(=O)NC2CCN(C(=O)Nc3ccc(C#N)cc3)CC2)cc1OC (configuration not stated) | -36% | 4.61 µM [falling, full curve] | 1.64 µM [falling, full curve] |
| CC(NC(=O)[C@H](Cc1c[nH]c2ccccc12)NC(=O)[C@@H]1Cc2ccccc2CN1)c1ccccc1 (some centres not stated) | 11.7% | 20.6 µM [rising, single point] |  |
| CCOCCCNC(=S)NCCNc1nc2c(C)cccc2cc1C#N |  | 0.291 µM [rising, partial curve, poor fit] |  |
| CCCCCCCC(=O)NC(Nc1ccc(S(N)(=O)=O)cc1)C(Cl)(Cl)Cl (configuration not stated) | -8.32% | 0.184 µM [falling, full curve, poor fit] |  |
| C=CCSc1nnc(C)n1-c1ccc(Cl)cc1 | 4.3% |  |  |
| CSc1ccccc1OCc1cc(C(=O)NCC(C)(C)N2CCOCC2)no1 | -5.17% |  |  |
| O=C1NC(c2cccs2)Nc2sc3c(c21)CCCC3 (configuration not stated) | 55.6% | 0.366 µM [falling, single point] | 13 µM [rising, single point] |
| Cc1ccc(N2Cc3ccccc3OC(C)C2=O)cc1 (configuration not stated) | 2.7% |  |  |
| CC(C)c1ccc(N(C(=O)c2snc(C(N)=O)c2N)C(C(=O)NCC2CCCO2)c2ccc(N(C)C)cc2)cc1 (configuration not stated) | -2.02% | 0.58 µM [rising, single point] |  |
| Cc1nn(Cc2c(F)c(F)c(F)c(F)c2F)c(C)c1NC(=O)c1ccc(COc2ccc(F)cc2)o1 |  | 1.84 µM [rising, partial curve] |  |
| O=[N+]([O-])c1cc(F)c2cccnc2c1O | 5.08% | 29.1 µM [rising, single point] |  |
| CCN(CC)CCN(C(=O)c1ccc2c(c1)OCCO2)c1nc2c(Cl)cccc2s1 | 37.8% | 20 µM [rising, partial curve] | 25.1 µM [rising, single point] |
| COc1cc(NC2c3ccccc3C(=O)N2Cc2ccc3c(c2)OCO3)cc(OC)c1 (configuration not stated) | 32.1% | 16.4 µM [rising, partial curve] | 20.6 µM [rising, single point] |

| SMILES | cell number change | AC50 [1] | AC50 [2] |
| --- | --- | --- | --- |
| Cc1cc(=O)oc2cc(OC(C)C(=O)Nc3ccc(C(N)=O)cc3)ccc12 (configuration not stated) | 1.13% | 20.6 µM [rising, single point] |  |
| Cn1c(-n2c(CCCN3C(=O)c4ccccc4C3=O)nc3ccccc3c2=O)nc2ccccc21 | 0.136% | 0.00517 µM [falling, full curve, poor fit] |  |
| O=C(CN1CCN(c2ccccc2O)CC1)Nc1ccnn1C1CCCC1 | -9.23% | 3.26 µM [falling, single point] |  |
| COCC(C)n1c(C)cc(C(=O)CSc2cc(C)c3ccccc3n2)c1C (configuration not stated) | 43.8% | 11.6 µM [rising, partial curve] | 8.2 µM [rising, partial curve] |
| COc1ccc(NC(=O)CN(C)C(=O)CCCc2nc3ccccc3s2)cc1 |  | 29.1 µM [rising, single point] |  |
| COc1ccc(N2CCN(C(c3cccs3)C(C)NC(=O)c3ccc4c(c3)OCO4)CC2)cc1 (configuration not stated) | 37.9% |  | 4.11 µM [rising, partial curve] |
| Cc1ccc(NCC(=O)N/N=C/c2cccc(Br)c2)cc1 |  |  | 6.51 µM [falling, single point] |
| Cc1nn(C)cc1CNCc1ccc(OCC(O)CN(C)Cc2ccccc2)cc1 (configuration not stated) | -13.7% | 14.6 µM [falling, single point] |  |
| COc1ccnc(Oc2ccc(F)cc2)c1C(=O)N/C=N/OCc1c(Cl)cccc1Cl | 128% | 4.61 µM [rising, partial curve] | 0.651 µM [rising, single point] |
| C/C(=N\N=c1/sc2ccccc2n1C)c1ccccn1 | -3.75% |  |  |
| COc1cc(CNc2ccccc2SC)ccc1O | 8.77% | 0.116 µM [falling, full curve, poor fit] |  |
| O=C(c1ccccc1F)N1CCc2ccccc21 | -0.558% |  |  |
| CC#CC[N+](C)(C)CCCCCCCC | 32.3% | 0.731 µM [rising, full curve, poor fit] | 0.82 µM [rising, full curve, poor fit] |
| CCOc1ccc(NC(=O)CSc2nc3ccccc3nc2N2CCCC2)cc1 | -17% |  |  |
| Cc1nnc(SCCn2c(Br)nc3c2c(=O)[nH]c(=O)n3C)s1 | 18.5% | 0.82 µM [falling, full curve, poor fit] |  |
| CCOC(=O)C1(CC2CCCCO2)CCN(C(=O)Nc2cccc(SC)c2)CC1 (configuration not stated) | -18.9% | 18.4 µM [falling, partial curve, poor fit] |  |
| CC(C)NC(=O)COC(=O)c1cc(=O)[nH]c2ccccc12 | 18.6% | 29.1 µM [rising, single point] |  |
| COc1ccc(C(=O)Nc2ccccc2C(=O)NC(Cc2ccc(O)cc2)C(=O)NNC(=O)c2ccncc2)cc1 (configuration not stated) | 33.1% | 0.651 µM [rising, full curve] | 2.59 µM [rising, partial curve] |
